From ChEMBL document CHEMBL3988442, “University of Dundee, Small-Polar-MMV Screening Library” (2021).

Mtb heat-shock: 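Assay on Mycobacterium tuberculosis, filed only as a heat shock assay from Cornell; the read-out is not stated. The concentration is filed as 10 mM, unlikely as a test dose, so the dose is not known. The record gives no direction; compounds that gave an IC50 in retests scored well above the rest, so higher reads as stronger inhibition. About 69,000 compounds were tested under these conditions; 1.4% (about 930) showed 50% or more at least once.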
Mtb growth Cornell: 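Whole-cell assay for inhibitors of Mycobacterium tuberculosis growth, labelled Cornell in the record; the read-out is not stated. The concentration is filed as 10 mM, unlikely as a test dose, so the dose is not known. Higher means stronger inhibition (inferred from two other growth screens of the library). Of about 53,000 compounds tested this way, about 900 (1.7%) reached 50% or more in at least one test.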

The filed quantity is “Percent Effect” (%). The controls that fix the scale are not given in the record; negative values are as filed. Compounds were drawn at random from those tested, without regard to their results. A dash means the value is not listed here; it may have been measured.

| # | SMILES | Mtb heat-shock | Mtb growth Cornell |
|---|---|---|---|
| 1 | `O=C(CC1CC1)NCc1cc(=O)n2c(n1)CN(Cc1ccoc1)CCC2` | -6.411 | 9.15 |
| 2 | `CCc1ccc(CN(C)Cc2nc(COc3ccccc3)no2)nc1` | 62.03 | - |
| 3 | `CS(=O)(=O)N1CCC(c2cncc(Cl)n2)CC1` | -5.851 | -12.89 |
| 4 | `CCNC(=O)c1nc2c(s1)CCCN2S(C)(=O)=O` | -22.18 | -24.11 |
| 5 | `O=C(O)C(F)(F)F.c1ccc(C[C@H]2CN(C3CCOCC3)CC[C@H]2OCC2CC2)cc1` | -8.687 | - |
| 6 | `N#Cc1cccc(S(=O)(=O)NC(=O)COCC(F)(F)F)c1` | 15.12 | - |
| 7 | `Cc1nc(CN2CCc3ncnc(-c4ccsc4)c3CC2)cs1.O=C(O)C(F)(F)F` | -6.861 | 15.13 |
| 8 | `Cc1ccc(-c2nnc([C@H]3CCN(C4CCC4)C3)o2)cc1` | 12.19 | -14.03 |
| 9 | `[H][C@]12CC[C@]([H])(CN(C(=O)Cc3nonc3C)C1)N(Cc1ccccc1)C2=O` | -9.994 | - |
| 10 | `O=C(NCc1cc(N2CCOCC2)ncn1)c1cccc(CO)n1` | -20.67 | 8.28 |
| 11 | `CSc1nc2cc(C)n(CC(=O)NC(C)C)c2c(=O)n1CC(C)C` | -16.58 | 17.07 |
| 12 | `COc1ccccc1OC1CN(C(=O)c2c(C)nc3ccc(C)cn23)C1` | -22.41 | 34.74 |
| 13 | `O=C(O)C(F)(F)F.O=C(O)C(F)(F)F.[H][C@@]12COC[C@@H](CC(=O)N3CCCC3)[C@]1([H])CN(Cc1cccnc1)C2` | -22.78 | 10.57 |
| 14 | `CCNC(=O)[C@@H]1C[C@@H](NC(=O)c2cccn2C)CN1CCCSC` | 2.743 | -13.96 |
| 15 | `CNC(=O)CN1CCC(c2cc(OC)cc(OC)c2)C1` (stereo not given) | 3.395 | -10.25 |
| 16 | `CS(=O)(=O)N1CCC(Cc2cnc(Br)cn2)C1` (stereo not given) | -3.194 | -56.87 |
| 17 | `O=c1[nH]cnc2c1CCN(S(=O)(=O)c1ccc(OC(F)(F)F)cc1)C2` | 3.988 | 19.55 |
| 18 | `CCCc1n[nH]c(C2CN(C(=O)Cn3ccccc3=O)CCO2)n1` (stereo not given) | 3.884 | -0.8928 |
| 19 | `COc1ccccc1N1CCN(CC(=O)NC(C)c2ccco2)CC1` (stereo not given) | 9.607 | 25.38 |
| 20 | `CNc1nc(CNC(=O)Nc2cccc(-n3ccc(C)n3)c2)cs1` | -5.04 | - |
| 21 | `Cc1cnn(C2CCCN(C(=O)Cc3ccc(C#N)cc3)C2)c1` (stereo not given) | -8.525 | 3.449 |
| 22 | `CN(CC1(C)COC1)C(=O)c1cc(-c2ccnn2C)nc2ccccc12` | 8.851 | -3.181 |
| 23 | `CC(=O)N(Cc1noc(C2CC2)n1)C1CCN(Cc2ccccn2)C1` (stereo not given) | -16.47 | 3.862 |
| 24 | `CNC(=O)[C@@H]1C[C@@H](n2cc(-c3ccc(CN4CC=CC4)cc3)nn2)CN1` | -2.431 | - |
| 25 | `CNC(=O)C1CCN(C(=O)c2coc(COc3ccc(OC)cc3)n2)C1` (stereo not given) | 2.061 | 19.19 |
| 26 | `Cc1nc(C2CCCN2C(=O)CCCn2cccn2)no1` (stereo not given) | -2.803 | - |
| 27 | `CC(C)CN1CCn2nc(CNc3ncnc4[nH]ccc34)cc2C1` | 5.263 | - |
| 28 | `O=C(O)C(F)(F)F.[H][C@@]12CO[C@@H](CNS(C)(=O)=O)[C@]1([H])CCN(C(=O)c1ccccn1)C2` | -4.241 | 16.47 |
| 29 | `CN1CCCC(c2ccnc(C(=O)NC3CC3)c2)C1` (stereo not given) | -7.022 | 3.328 |
| 30 | `Cn1ccnc1SCC(=O)NCc1ccc2c(c1)CCC(=O)N2` | 7.649 | -11.99 |
| 31 | `Cc1nn(C2CCCCC2)c2nc(C(C)(C)CN3CCOCC3)[nH]c12` | 6.259 | 19.65 |
| 32 | `Cc1nn(C)c(C)c1CN1CCN(CC2(O)CCCN(C)C2)CC1` (stereo not given) | -2.263 | 25.96 |
| 33 | `CC(C)CNC(=O)c1nn(C)c(NC(=O)Cc2ccccc2)c1F` | 4.23 | 40.73 |
| 34 | `OC1CCN(C2CCN(Cc3cnc(-c4cccs4)nc3)CC2)CC1` | -2.315 | 22.74 |
| 35 | `Cc1ccc(-c2ccc(Cl)nn2)cc1S(=O)(=O)N1CCOCC1` | -8.426 | 13.02 |
| 36 | `Cc1cnc(CN2CCCC(c3cc(C)[nH]n3)C2)cn1` (stereo not given) | -21.45 | -38.8 |
| 37 | `COCc1nc(C(=O)N2CCCC(n3ccnc3)C2)cs1` (stereo not given) | 6.474 | - |
| 38 | `CN(C)CC(=O)N1Cc2cc(N(C)C)ccc2C1c1cnco1` (stereo not given) | 0.1141 | 30.13 |
| 39 | `CCOc1ccc(CC(CNC(=O)c2ccc(C)o2)C(N)=O)cc1` (stereo not given) | 3.415 | -15.46 |
| 40 | `Cc1ccc2cc(C(=O)N3CCN(S(C)(=O)=O)CC3)[nH]c2c1` | 1.9 | 30.64 |
| 41 | `Fc1cnc(N2CCCC3(CCN(Cc4ccsc4)C3)C2)nc1.O=C(O)C(F)(F)F.O=C(O)C(F)(F)F` (stereo not given) | 16.44 | 23.37 |
| 42 | `CCn1ncnc1C(C)Nc1cc(C2CC2)ncn1` (stereo not given) | -1.546 | 11.2 |
| 43 | `COCC(=O)N1CCN(C(=O)C2(c3ccc(C)c(OC)c3)CC2)CC1` | 10.48 | -38.69 |
| 44 | `COc1ccccc1COCC(O)CN(C)Cc1cccc(Cl)c1` (stereo not given) | -8.276 | 12.74 |

Once more, the final 5:

SMILES,Mtb heat-shock,Mtb growth Cornell
Cc1ccc2cc(C(=O)N3CCN(S(C)(=O)=O)CC3)[nH]c2c1,1.9,30.64
Fc1cnc(N2CCCC3(CCN(Cc4ccsc4)C3)C2)nc1.O=C(O)C(F)(F)F.O=C(O)C(F)(F)F (stereo not given),16.44,23.37
CCn1ncnc1C(C)Nc1cc(C2CC2)ncn1 (stereo not given),-1.546,11.2
COCC(=O)N1CCN(C(=O)C2(c3ccc(C)c(OC)c3)CC2)CC1,10.48,-38.69
COc1ccccc1COCC(O)CN(C)Cc1cccc(Cl)c1 (stereo not given),-8.276,12.74